Tests used:
[1] = Animal Experiment 1 (Example 1): NaCl, water and feed consumption and body weight of SHRs; format: in vivo, rat; settings: 8-15 weeks old (56 days)
Protocol: Seven-week-old male SHRs were divided into 5 groups of 6 to 7 animals. Following 1 week of acclimatization, each group was allowed to feed freely on semi-solid feed for 7 to 8 weeks. The feed given was prepared by adding 40 wt % moisture to powdered feed. To ensure that each SHR would develop hypertension, 1 wt % salt was added to the feed. The animals were allowed to freely drink tap water. Over the course of the test period, each animal was weighed and the feed consumption was measured. Blood pressure was taken from the tail vein every four days between 4 PM and 6 PM. After a 12-hour fasting period, the animals were sacrificed. Serum, liver, and kidney were weighed and subjected to analyses.
The sea water added was NaCl-removed deep sea water (DW) or NaCl-removed surface sea water (SW) prepared by dialyzation through an electrodialyzer (Asahi Kasei) until the conductivity of monovalent ions was decreased to 10 mS/cm.
The Si concentration in the semi-solid feed containing 40% moisture is defined as the amount of Si contained in 1 kg of the feed.

[2] = Animal Experiment 2 (Example 2): NaCl, water and feed consumption and body weight of SHRs; format: in vivo, rat; settings: 7-14 weeks old (49 days)
Protocol: Twenty-five 7-week-old male SHRs were divided into 5 groups of 5 animals. Four times as much Si as used in Example 1 was added to the feed given to the rats. Otherwise, the animals were tested under the same conditions as in Example 1. Two types of sea water were added to the powder feed: sea water subjected to NaCl-removing treatment by electrical dialysis and ion-exchanged water. The semi-solid feed containing 1.4 wt % NaCl and 40% moisture was prepared by adding the sea water to powdered feed.

O.O.O.O.O.O.O.O.O.O=[Si]([O-])[O-].[Na+].[Na+] [Si, sodium metasilicate nonahydrate]
Feed consumption [1]: 34.5 ± 3.1 g/day/rat | Feed consumption, % of Control [1]: [101.9%] | NaCl consumption [1]: 344.1 ± 31.0 mg/day/rat | NaCl consumption, % of Control [1]: [101.9%] | Water consumption [1]: 23.5 ± 5.3 ml/day/rat | Water consumption, % of Control [1]: [106.5%] | Feed consumption [2]: 29.2 ± 4.8 g/day/rat | Feed consumption, % of Control [2]: [104.4%] | NaCl consumption [2]: 409.4 ± 58.5 mg/day/rat | NaCl consumption, % of Control [2]: [110.3%] | Water consumption [2]: 34.8 ± 6.4 ml/day/rat | Water consumption, % of Control [2]: [108.4%]

— patent US7919620B2, “Agent for suppressing blood pressure elevation” (Coral Biotech Kabushiki Kaisha, priority 2005, dated 2011)
